From article PMC12043515, “Stepwise neofunctionalization of the NF-κB family member Rel during vertebrate evolution” come the findings set out here.

Amino acid sequences for entries named in this document (tags omitted). Residues count along the entry.
UniProt Q04207, 19-306: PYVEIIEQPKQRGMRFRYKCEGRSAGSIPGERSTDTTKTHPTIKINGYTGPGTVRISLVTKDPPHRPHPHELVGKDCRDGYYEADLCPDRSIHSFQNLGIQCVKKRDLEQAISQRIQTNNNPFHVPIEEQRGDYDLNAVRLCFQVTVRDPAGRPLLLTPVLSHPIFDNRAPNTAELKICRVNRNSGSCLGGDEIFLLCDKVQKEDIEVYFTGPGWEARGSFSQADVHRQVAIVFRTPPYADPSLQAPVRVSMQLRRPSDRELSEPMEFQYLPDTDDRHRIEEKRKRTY
UniProt A0ACM8Q4Y4, entry or part of it: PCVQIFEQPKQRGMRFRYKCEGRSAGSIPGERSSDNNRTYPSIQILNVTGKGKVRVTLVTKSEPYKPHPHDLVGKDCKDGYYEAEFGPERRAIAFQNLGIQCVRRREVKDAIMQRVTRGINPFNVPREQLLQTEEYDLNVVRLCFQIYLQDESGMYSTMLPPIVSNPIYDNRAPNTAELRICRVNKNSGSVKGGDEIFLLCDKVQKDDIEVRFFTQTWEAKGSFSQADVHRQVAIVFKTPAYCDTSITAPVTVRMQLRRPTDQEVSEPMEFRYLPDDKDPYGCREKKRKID
UniProt Q04206, 19-306: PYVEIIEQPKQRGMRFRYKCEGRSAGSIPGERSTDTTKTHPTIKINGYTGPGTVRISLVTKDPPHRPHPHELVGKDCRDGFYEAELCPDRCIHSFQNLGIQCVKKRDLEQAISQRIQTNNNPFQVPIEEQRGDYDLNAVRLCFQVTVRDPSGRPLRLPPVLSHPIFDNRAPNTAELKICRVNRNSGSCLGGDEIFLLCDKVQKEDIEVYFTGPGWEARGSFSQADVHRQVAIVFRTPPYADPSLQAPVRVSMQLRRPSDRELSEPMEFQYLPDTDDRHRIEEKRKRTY

Construct, isoform or probe ends are uncertain for at least one entry. For some assays here: Where cells or extracts were used, other partners may take part. For some assays here: The comparison behind a weaker result is the experiment's own reference, which may not be listed here. For some assays here: Protein sequences can lack the tags named with them. For some assays here: At least one verdict was read from the data and is not stated in words by the source.

For series [1], the target named is Rel RHR homodimer (UniProt P15307). Description: EMSA. Conditions: purified protein, control; EMSA: 10 mM Tris-HCl pH 7.5, 150 mM NaCl, 1 mM DTT, 1 mM EDTA, 5% glycerol, 80 ng/ul dI-dC, 200 ng/ul BSA, 4 C; off-rate with 100-fold unlabeled consensus; recombinant protein; label: 32P. (In general: Mobility shift assays separate free from complexed probe on a gel.)
Series [2] has as its target RelA RHR homodimer (UniProt Q04207). Description: EMSA. Conditions: purified protein, control; EMSA: 10 mM Tris-HCl pH 7.5, 150 mM NaCl, 1 mM DTT, 1 mM EDTA, 5% glycerol, 80 ng/ul dI-dC, 200 ng/ul BSA, 4 C; off-rate with 100-fold unlabeled consensus; recombinant protein; label: 32P.
Series [3] has as its target Rel RHR C137Y C143Y (UniProt P15307). Description: EMSA off-rate. Conditions: no impact versus WT; EMSA: 10 mM Tris-HCl pH 7.5, 150 mM NaCl, 1 mM DTT, 1 mM EDTA, 5% glycerol, 80 ng/ul dI-dC, 200 ng/ul BSA, 4 C; off-rate with 100-fold unlabeled consensus; protein in a lysate after overexpression; label: 32P.
For series [4], the target named is Rel RHR R101A R108A (UniProt P15307). In words: EMSA off-rate. Conditions: faster off-rate than R101Q; EMSA: 10 mM Tris-HCl pH 7.5, 150 mM NaCl, 1 mM DTT, 1 mM EDTA, 5% glycerol, 80 ng/ul dI-dC, 200 ng/ul BSA, 4 C; off-rate with 100-fold unlabeled consensus; protein in a lysate after overexpression; label: 32P.
For series [5], the target named is Rel RHR R101Q C137Y R108Q,C143Y (UniProt P15307). Description: EMSA off-rate. Conditions: moderately faster off-rate than R101Q; EMSA: 10 mM Tris-HCl pH 7.5, 150 mM NaCl, 1 mM DTT, 1 mM EDTA, 5% glycerol, 80 ng/ul dI-dC, 200 ng/ul BSA, 4 C; off-rate with 100-fold unlabeled consensus; protein in a lysate after overexpression; label: 32P.
The subject of series [6] is Rel RHR elephant shark (elephant shark). In words: EMSA off-rate. As to conditions: comparable to elephant shark RelA; EMSA: 10 mM Tris-HCl pH 7.5, 150 mM NaCl, 1 mM DTT, 1 mM EDTA, 5% glycerol, 80 ng/ul dI-dC, 200 ng/ul BSA, 4 C; off-rate with 100-fold unlabeled consensus; protein in a lysate after overexpression; protein details: N-terminal Flag; label: 32P.
Series [7] has as its system Rel RHR frog (frog). Description: EMSA off-rate. Conditions: slower off-rate than frog RelA; EMSA: 10 mM Tris-HCl pH 7.5, 150 mM NaCl, 1 mM DTT, 1 mM EDTA, 5% glycerol, 80 ng/ul dI-dC, 200 ng/ul BSA, 4 C; off-rate with 100-fold unlabeled consensus; protein in a lysate after overexpression; protein details: N-terminal Flag; label: 32P.
For series [8], the target named is T1, Rel RHR human (Homo sapiens) (UniProt Q04864).
T1 sequence (looked up, limits assumed): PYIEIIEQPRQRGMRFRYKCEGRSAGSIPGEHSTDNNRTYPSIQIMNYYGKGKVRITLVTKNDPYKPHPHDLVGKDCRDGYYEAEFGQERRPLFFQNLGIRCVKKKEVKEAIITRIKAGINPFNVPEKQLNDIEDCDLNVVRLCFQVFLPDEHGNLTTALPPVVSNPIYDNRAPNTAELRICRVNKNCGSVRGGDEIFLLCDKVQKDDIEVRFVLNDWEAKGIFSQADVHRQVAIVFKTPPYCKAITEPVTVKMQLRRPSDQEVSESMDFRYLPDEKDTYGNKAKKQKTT
Description: EMSA off-rate. As to conditions: much slower off-rate than human RelA; EMSA: 10 mM Tris-HCl pH 7.5, 150 mM NaCl, 1 mM DTT, 1 mM EDTA, 5% glycerol, 80 ng/ul dI-dC, 200 ng/ul BSA, 4 C; off-rate with 100-fold unlabeled consensus; protein in a lysate after overexpression; protein details: N-terminal Flag; label: 32P.

In series [9] the target is Rel RHR mouse (mouse) (UniProt P15307). Description: EMSA off-rate. Conditions: much slower off-rate than mouse RelA; EMSA: 10 mM Tris-HCl pH 7.5, 150 mM NaCl, 1 mM DTT, 1 mM EDTA, 5% glycerol, 80 ng/ul dI-dC, 200 ng/ul BSA, 4 C; off-rate with 100-fold unlabeled consensus; protein in a lysate after overexpression; protein details: N-terminal Flag; label: 32P.
Series [10] has as its target Rel RHR zebrafish (zebrafish) (UniProt A0ACM8Q4Y4). In words: EMSA off-rate. Conditions: comparable to zebrafish RelA; EMSA: 10 mM Tris-HCl pH 7.5, 150 mM NaCl, 1 mM DTT, 1 mM EDTA, 5% glycerol, 80 ng/ul dI-dC, 200 ng/ul BSA, 4 C; off-rate with 100-fold unlabeled consensus; protein in a lysate after overexpression; protein details: N-terminal Flag; label: 32P.
In series [11] the test system is RelA RHR elephant shark (elephant shark). Description: EMSA off-rate. As to conditions: comparable to elephant shark Rel; EMSA: 10 mM Tris-HCl pH 7.5, 150 mM NaCl, 1 mM DTT, 1 mM EDTA, 5% glycerol, 80 ng/ul dI-dC, 200 ng/ul BSA, 4 C; off-rate with 100-fold unlabeled consensus; protein in a lysate after overexpression; protein details: N-terminal Flag; label: 32P.
The subject of series [12] is RelA RHR frog (frog). In words: EMSA off-rate. Conditions: faster off-rate than frog Rel; EMSA: 10 mM Tris-HCl pH 7.5, 150 mM NaCl, 1 mM DTT, 1 mM EDTA, 5% glycerol, 80 ng/ul dI-dC, 200 ng/ul BSA, 4 C; off-rate with 100-fold unlabeled consensus; protein in a lysate after overexpression; protein details: N-terminal Flag; label: 32P.
The target of series [13] is RelA RHR human (Homo sapiens) (UniProt Q04206). Description: EMSA off-rate. As to conditions: faster off-rate than human Rel; EMSA: 10 mM Tris-HCl pH 7.5, 150 mM NaCl, 1 mM DTT, 1 mM EDTA, 5% glycerol, 80 ng/ul dI-dC, 200 ng/ul BSA, 4 C; off-rate with 100-fold unlabeled consensus; protein in a lysate after overexpression; protein details: N-terminal Flag; label: 32P.
In series [14] the target is RelA RHR mouse (mouse) (UniProt Q04207). Description: EMSA off-rate. Conditions: faster off-rate than mouse Rel; EMSA: 10 mM Tris-HCl pH 7.5, 150 mM NaCl, 1 mM DTT, 1 mM EDTA, 5% glycerol, 80 ng/ul dI-dC, 200 ng/ul BSA, 4 C; off-rate with 100-fold unlabeled consensus; protein in a lysate after overexpression; protein details: N-terminal Flag; label: 32P.

Consider “CCTAACATCAGGGAATTTCCTGATGTTAGG (double strand) [consensus NF-κB]”, for which the binding result in series [1] was “binds”; in series [2], “binds”; in series [3], “binds”; in series [4], “binds more weakly”; in series [5] it was “binds more weakly”; in series [6] it was “binds”. Also, the binding result in series [7] is “binds”; in series [8], “binds”; in [9], “binds”; in [10], “binds”; in series [11] it was “binds”; in [12] it was “binds more weakly”. Also, the binding result in series [13] and in [14] was “binds more weakly” in each case.
